According to patent publication US7045613:
These are yes or no findings as the source states them, for the method shown. Binding seen in cells or lysates may run through a third protein. Some entries that bind do so weakly or less than the wild type.

Amino acid sequences for entries named in this document (tags omitted).
UniProt Q99558: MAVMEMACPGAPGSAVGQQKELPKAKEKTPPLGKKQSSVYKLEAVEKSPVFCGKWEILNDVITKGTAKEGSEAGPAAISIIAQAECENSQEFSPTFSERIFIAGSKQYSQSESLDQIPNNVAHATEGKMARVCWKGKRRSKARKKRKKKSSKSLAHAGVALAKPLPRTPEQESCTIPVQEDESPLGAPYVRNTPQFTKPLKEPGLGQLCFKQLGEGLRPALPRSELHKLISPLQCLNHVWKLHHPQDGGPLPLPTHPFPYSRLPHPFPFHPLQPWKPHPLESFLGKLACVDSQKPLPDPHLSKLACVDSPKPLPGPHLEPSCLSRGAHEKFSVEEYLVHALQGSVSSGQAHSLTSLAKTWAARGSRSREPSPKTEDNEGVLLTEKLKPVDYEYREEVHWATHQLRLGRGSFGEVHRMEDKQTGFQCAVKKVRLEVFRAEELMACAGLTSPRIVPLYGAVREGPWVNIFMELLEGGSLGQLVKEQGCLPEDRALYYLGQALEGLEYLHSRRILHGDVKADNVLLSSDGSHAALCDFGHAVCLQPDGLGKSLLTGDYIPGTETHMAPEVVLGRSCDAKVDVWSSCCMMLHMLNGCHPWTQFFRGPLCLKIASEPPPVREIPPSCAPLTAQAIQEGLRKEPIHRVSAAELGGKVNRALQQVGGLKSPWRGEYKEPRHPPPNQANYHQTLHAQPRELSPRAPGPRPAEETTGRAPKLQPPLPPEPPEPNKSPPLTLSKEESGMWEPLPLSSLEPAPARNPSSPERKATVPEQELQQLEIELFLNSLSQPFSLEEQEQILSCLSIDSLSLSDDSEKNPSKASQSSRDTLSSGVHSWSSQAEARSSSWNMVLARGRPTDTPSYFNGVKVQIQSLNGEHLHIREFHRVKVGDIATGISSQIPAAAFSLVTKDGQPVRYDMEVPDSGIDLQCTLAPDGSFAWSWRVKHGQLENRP

Columns and labels:
Myc epitope-tagged NIK [1] = biological target: Myc epitope-tagged NIK (UniProt Q99558); assay: restates the coimmunoprecipitation result
Myc epitope-tagged NIK [2] = biological target: Myc epitope-tagged NIK (UniProt Q99558); assay: coimmunoprecipitation from 293 cell lysates

binding (Myc epitope-tagged NIK [1]): binds
binding (Myc epitope-tagged NIK [2]): binds
B1: IKK-α(307-745) (enzyme)
chain: ILNLKIVHILNMTSAKIISFLLPPDESLHSLQSRIERETGINTGSQELLSETGISLDPRKPASQCVLDGVRGCDSYMVYLFDKSKTVYEGPFASRSLSDCVNYIVQDSKIQLPIIQLRKVWAEAVHYVSGLKEDYSRLFQGQRAAMLSLLRYNANLTKMKNTLISASQQLKAKLEFFHKSIQLDLERYSEQMTYGISSEKMLKAWKEMEEKAIHYAEVGVIGYLEDQIMSLHAEIMELQKSPYGRRQGDLMESLEQRAIDLYKQLKHRPSDHSYSDSTEMVKIIVHTVQSQDRVLKELFGHLSKLLGCKQKIIDLLPKVEVALSNIKEADNTVMFMQGKRQKEIWHLLKIACTQSSARSLVGSSLEGAVTPQTSAWLPPTSAEHDHSLSCVVTPQDGETSAQMIEENLNCLGHLSTIIHEANEEQGNSMMNLDWSWLTE
